# Library screening results

Amino acid sequences for entries named in this document (tags omitted).
UniProt E9BF75, entry or part of it: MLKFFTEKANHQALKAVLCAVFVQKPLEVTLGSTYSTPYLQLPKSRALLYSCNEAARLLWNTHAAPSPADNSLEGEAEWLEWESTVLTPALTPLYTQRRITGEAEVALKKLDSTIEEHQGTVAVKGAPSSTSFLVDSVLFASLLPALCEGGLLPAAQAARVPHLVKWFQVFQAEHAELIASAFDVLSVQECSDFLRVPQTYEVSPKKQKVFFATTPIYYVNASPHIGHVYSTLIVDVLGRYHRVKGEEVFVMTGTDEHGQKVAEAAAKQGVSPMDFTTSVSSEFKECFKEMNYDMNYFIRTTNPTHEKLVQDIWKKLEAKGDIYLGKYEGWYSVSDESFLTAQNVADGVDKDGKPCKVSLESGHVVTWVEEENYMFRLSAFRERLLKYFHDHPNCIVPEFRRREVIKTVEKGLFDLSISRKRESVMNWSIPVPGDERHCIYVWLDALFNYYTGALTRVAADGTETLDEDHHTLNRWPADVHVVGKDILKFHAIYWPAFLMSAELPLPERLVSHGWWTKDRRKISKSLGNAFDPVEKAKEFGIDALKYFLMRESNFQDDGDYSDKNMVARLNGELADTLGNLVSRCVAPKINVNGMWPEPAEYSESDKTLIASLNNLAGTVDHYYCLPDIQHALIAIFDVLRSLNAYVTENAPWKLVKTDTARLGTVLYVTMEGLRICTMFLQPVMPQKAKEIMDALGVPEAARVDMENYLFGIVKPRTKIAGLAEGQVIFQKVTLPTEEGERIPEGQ

A: 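Assay on Mycobacterium tuberculosis, filed only as a heat shock assay from Cornell; the read-out is not stated. The concentration is filed as 10 mM, unlikely as a test dose, so the dose is not known. Direction is inferred from retests: higher values go with stronger inhibition. Of about 69,000 compounds tested this way, about 930 (1.4%) reached 50% or more in at least one test.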
B: 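Methionyl-tRNA synthetase (putative), Leishmania donovani (UniProt E9BF75). Primary screen of methionyl-tRNA synthetase; the read-out is not stated. The test concentration is not given. Values are per cent inhibition. Of about 68,000 compounds tested this way, about 24 (0.035%) reached 50% or more in at least one test.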
C: 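Whole-cell assay for inhibitors of Mycobacterium tuberculosis growth, labelled Cornell in the record; the read-out is not stated. The concentration is filed as 10 mM, unlikely as a test dose, so the dose is not known. The record gives no direction; compounds strong in two other growth screens of this library score well above the rest, so higher reads as stronger inhibition. About 53,000 compounds were tested under these conditions; 1.7% (about 900) showed 50% or more at least once.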

Results are percentages, as filed. The controls that fix the scale are not given in the record; negative values are as filed. The compounds are a random part of those screened. A dash means the value is not listed here; it may have been measured.

| compound | A | B | C |
|---|---|---|---|
| `CN(C)S(=O)(=O)c1ccc(-c2nc(C#N)c(NC3CC3)o2)o1` | 78.01% | 10.03% | 11.8% |
| `O=C(c1ccnnc1)N1CCO[C@H]2[C@H](Oc3cccnc3)CC[C@@H]21` | - | 6.731% | - |
| `COc1ccc(S(=O)(=O)Nc2cccnc2-n2cncn2)c(C)c1` | -0.9307% | 19.51% | - |
| `Cn1cnc2c1C(COCC1CCOCC1)CN(c1ncccn1)C2.O=C(O)C(F)(F)F.O=C(O)C(F)(F)F` (centres unmarked) | -6.828% | - | 7.596% |
| `Cc1ccccc1CNC(=O)N1C[C@H]2C[C@H](C(=O)N3CCCC3)[C@@H](C1)O2` | - | 13.87% | - |
| `CCN(CC)CC1CN(Cc2ccco2)Cc2nccn2C1` (centres unmarked) | -23.93% | 20.25% | 14.88% |
| `Cc1nc(S(=O)(=O)CCn2cccn2)n(C2CCCCC2)c1C` | -2.952% | 26.9% | -6.287% |
| `COc1ccc(CN2C[C@@H]3CN(S(=O)(=O)C4CC4)C[C@@H]3C2=O)cc1` | - | 3.889% | - |
| `CCCc1ccc(CN2CCC3(CCC(=O)N(CCO)C3)CC2)o1` | -16.62% | 11.92% | 9.804% |
| `CN(CC(=O)Nc1cc(C(F)(F)F)c[nH]c1=O)Cc1ccccc1` | 25.14% | 19.03% | - |
| `CNC(=O)C1(N2CCC[C@H]2C(=O)NC2CCOCC2)CCOCC1.Cl` | -48.74% | - | - |
| `CCCc1nc(N2CCN(Cc3ccccn3)CC2)c2cnn(C)c2n1` | 5.827% | 3.581% | 7.109% |
| `CN1CCN([C@@H]2CCN(Cc3ccc4cc(F)ccc4n3)C[C@H]2O)CC1` | -5.766% | -0.7792% | 0.6942% |
| `c1ccc(CN2C[C@@H]3COC[C@]3(COCC3CCOCC3)C2)nc1` | - | 14.19% | - |
| `COc1ccc(CN2CCn3cc(CN4CCN(C)CC4)nc3C2)cc1` | - | 13.13% | - |
| `Cn1cnnc1S(=O)(=O)Cc1cc(Cl)c2c(c1)OCO2` | 0.03319% | 2.703% | 11.48% |
| `COC[C@]12COC[C@H]1CN(C(=O)C1CCSCC1)C2` | - | 10.78% | - |
| `CN(C)C[C@@H]1CN(C(=O)c2cc(-c3ccccc3)n[nH]2)C[C@@H]1CO` | 14.16% | -2.54% | -16.29% |
| `Cc1cc(-n2cccn2)ccc1CN1CCOCC(CN(C)C)C1` (centres unmarked) | -20.21% | 7.599% | 2.853% |
| `OC[C@@H]1[C@H]2CN(c3ccccn3)CCN2C[C@H]1c1ccccc1` | - | 7.297% | - |
| `COc1ncc(CN(CCN(C)C)Cc2ccc(C)s2)cn1` | -3.645% | 0.2564% | -0.111% |
| `COCC[C@]1(O)CCN(Cc2ccccn2)C[C@H]1C` | 4.094% | 17.09% | - |
| `Cc1cc(S(=O)(=O)N(CC(N)=O)CC(C)C)ccc1Br` | -5.454% | 0.8065% | - |
| `Cc1ccccc1N1CCCN(C(=O)CCc2nncn2C)CC1` | 8.414% | 10.36% | - |
| `Cc1nc(CN2CCc3ncnc(-c4ccc(F)cc4)c3CC2)cs1` | - | 16.5% | - |
| `COC(=O)N1CCC(Nc2cccc(F)c2C(C)=O)C1` (centres unmarked) | 10.56% | 0% | 30.97% |
| `Cc1c(C(=O)N2CCNC(=O)C2)sc2nc[nH]c(=O)c12` | 43.66% | 6.178% | 12.16% |
| `CC(C)CN1CCC(N2CCC(C(=O)N(C)C)CC2)CC1.O=C(O)C(F)(F)F.O=C(O)C(F)(F)F` | 9.102% | - | 11.65% |
| `Cc1cc(N2CCCC(c3nccnc3N(C)C)C2)ncn1` (centres unmarked) | -16.62% | 16.2% | -10.83% |
| `COC(=O)c1cccc(C(=O)N(C)Cc2cccc(F)c2)c1` | -24.17% | 9.034% | 15.05% |
| `Cc1noc([C@@H]2CC[C@@H]3[C@@H](CCN3S(=O)(=O)c3cccnc3)O2)n1` | - | 14.29% | - |
| `O=S(=O)(C1CC1)N1C[C@@H]2CN(Cc3ccoc3)CCO[C@@H]2C1` | - | 8.696% | - |
| `COc1c(Br)cc(Br)cc1CNC(C)Cn1cccn1` (centres unmarked) | -9.569% | 7.692% | 0.28% |
| `O=C(O)C(F)(F)F.[H][C@@]12CN(CC3CCCC3)CCO[C@]1([H])CN(C(=O)C1CC(F)(F)C1)C2` | -23.11% | - | -21.79% |
| `CC(=O)N1CCC(N2CC[C@H](c3nc4cc(F)ccc4o3)C2)CC1` | -16.63% | 9.774% | -6.357% |
| `Cn1ccnc1CN1CCN(Cc2ccccc2)[C@@H]2CS(=O)(=O)C[C@@H]21` | - | 16.97% | - |
| `Cc1cc(C2CCCN(S(=O)(=O)c3cn(C)cn3)C2)ccn1` (centres unmarked) | -14.15% | 12.77% | 21.93% |
| `CCN1CCC2(CC1)CC(Nc1ncccn1)CO2` (centres unmarked) | 5.317% | 16.19% | 18.45% |
| `CCCNc1ccc(C(=O)NCCc2cccc(OC)c2)cn1` | 38.84% | 6.944% | -13.59% |
| `CCCN(CCC)C(=O)CN1CCCC1C(=O)N(C)C` (centres unmarked) | -9.09% | 9.422% | 3.712% |
| `COc1ccc(-c2cn([C@H](CO)CC(C)C)nn2)cn1` | 11.99% | 8.696% | 26.72% |
| `[H][C@@]12COC[C@]1([H])[C@H](OCc1csc(C)n1)CN2Cc1ccco1` | -18.08% | - | -8.899% |
| `CCOc1ccc(Cl)c(C(=O)N2CCN(C(=O)c3ccoc3C)CC2)n1` | 23.52% | 14.98% | 7.923% |
| `CCN(CC)CC(=O)Nc1ccc(-n2ccc(C(N)=O)n2)cc1` | -7.504% | 6.835% | -4.194% |
| `[H][C@]12CC[C@]([H])(CN(Cc3ccccn3)C1)N(C(=O)c1cc(C)nc(C)n1)C2` | 11.32% | - | -6.027% |
| `Cc1ncc(CN(C)C(=O)Nc2cccc(CN3CCOC3=O)c2)s1` | 20.13% | 20.92% | -19.92% |
| `CCN1CCCC(c2c(-c3ccccc3)ncn2CC(N)=O)C1` (centres unmarked) | -21.19% | 4.511% | - |
| `CNS(=O)(=O)c1cccc(C(C)NCc2ccccc2)c1` (centres unmarked) | 8.696% | 9.524% | 16.28% |
| `COCC(=O)N[C@H](C(=O)NC(C)c1cccc(C)c1C)C(C)C` (some centres unmarked) | 10.79% | - | - |
| `Cn1nnc2c1C(COCC1CC1)CN(C(=O)CC1=CCCCC1)C2` (centres unmarked) | -4.611% | 2.801% | -18.05% |
| `COc1ncc(C(=O)N2CCC3(CC2)C(=O)Nc2ccccc23)cn1` | -14.44% | 4.467% | 0.9611% |
| `Cn1cccc1C(=O)N1CCO[C@@H]2CN(Cc3nccs3)C[C@@H]2C1` | - | 10.39% | - |
| `[H][C@@]12CN(Cc3ccccc3O)C[C@]1([H])OCC(=O)N2Cc1nccn1C` | -33.49% | - | 17.92% |
| `c1ccc(-c2nc(CN3CCc4c(ncn4C4CC4)C3)cs2)cc1` | 62.99% | 18.47% | 1.137% |
| `Cc1nc(CO[C@H]2CN(C(=O)c3cccnc3)[C@@H]3COC[C@H]23)cs1` | - | 8.403% | - |
| `CN(Cc1ccccn1)C1CC2(CCN(Cc3cccnc3)CC2)C1.O=C(O)C(F)(F)F.O=C(O)C(F)(F)F.O=C(O)C(F)(F)F` | 2.773% | - | - |
| `Cc1cccc(CN2C[C@@H]3CN(C(=O)NC(C)C)C[C@@H]3C2=O)c1` | - | 10.24% | - |
| `CCn1ncnc1C(C)NC(=O)C1CCN(C2CCCCC2)CC1` (centres unmarked) | 10.07% | 15.46% | 8.992% |
| `CN(C)c1ccc(C(=O)N2CCCC(n3cccn3)C2)nn1` (centres unmarked) | -30.19% | 24.57% | -18.41% |
| `COc1ccc(C(C(=O)O)N2CCCN(C3CCCCC3)CC2)cn1` (centres unmarked) | 17.37% | 11.52% | -6.671% |
| `O=C(O)C(F)(F)F.[H][C@@]12COC[C@]1(C(=O)NC(C)C)CN(Cc1scnc1C)C2` | -2.599% | - | -0.3839% |
| `Cc1oncc1C(=O)N1CC[C@H]2[C@H]1CCN2S(C)(=O)=O` | - | 16.62% | - |
| `Cc1cccc2c1cnn2CCCNC(=O)CCCC(=O)O` | -27.5% | 18.11% | -16.93% |
| `Cc1cc(C(F)(F)F)nc(CCNC(C)Cn2ccnc2)n1` (centres unmarked) | 103.9% | 8.065% | 6.823% |
| `COc1ccc(C2=CNC(C(F)(F)F)=CC2N)cc1` (centres unmarked) | 1.706% | 14.32% | 2.792% |
| `COCCN(Cc1nc2c(cnn2C)c(=O)[nH]1)C(C)c1ccccc1` (centres unmarked) | -9.489% | 6.268% | -14.85% |
| `COc1ccnc(N2CCC3(CC2)[C@H](O)C[C@@H]3OCCN(C)C)n1` | 18.72% | 9.278% | -28.99% |
| `COc1cccc(CNC(=O)CCOc2ccccc2C)c1` | -33.44% | -2.957% | -10.34% |
| `CN(C)C(=O)[C@H]1C[C@H]2OCC[C@H]2N(Cc2ccc(F)cc2)C1` | - | 7.937% | - |
| `CCNC(=O)N1CCC(n2ccc(C(F)(F)F)n2)CC1` | 13.83% | 14.97% | 0.2855% |
| `Cl.NC(=O)COc1ccc(CNCc2ccc(F)cc2)cc1` | -18.87% | - | -23.09% |
| `CCn1cc(CN2CCC(NS(C)(=O)=O)CC2)cc1C#N` | -29.38% | 12.93% | 28.59% |
| `CSc1ccc(NCC(=O)NCC(=O)N2CCCC2)cc1F` | 15.72% | 12.03% | - |
| `COc1ccc(-n2nnc(C(=O)O)c2-c2ccccn2)cc1` | 8.393% | 6.364% | -15.42% |

Some entries from above, unchanged:

compound,A,B,C
Cc1oncc1C(=O)N1CC[C@H]2[C@H]1CCN2S(C)(=O)=O,-,16.62%,-
O=C(c1ccnnc1)N1CCO[C@H]2[C@H](Oc3cccnc3)CC[C@@H]21,-,6.731%,-
Cc1ccccc1N1CCCN(C(=O)CCc2nncn2C)CC1,8.414%,10.36%,-
COc1ccc(C(C(=O)O)N2CCCN(C3CCCCC3)CC2)cn1 (centres unmarked),17.37%,11.52%,-6.671%
c1ccc(-c2nc(CN3CCc4c(ncn4C4CC4)C3)cs2)cc1,62.99%,18.47%,1.137%
CCCNc1ccc(C(=O)NCCc2cccc(OC)c2)cn1,38.84%,6.944%,-13.59%
COc1ccc(CN2C[C@@H]3CN(S(=O)(=O)C4CC4)C[C@@H]3C2=O)cc1,-,3.889%,-
CCNC(=O)N1CCC(n2ccc(C(F)(F)F)n2)CC1,13.83%,14.97%,0.2855%
Cn1ccnc1CN1CCN(Cc2ccccc2)[C@@H]2CS(=O)(=O)C[C@@H]21,-,16.97%,-

Source: ChEMBL document CHEMBL3988442, “University of Dundee, Small-Polar-MMV Screening Library” (2021).